Results are given in words; binding and its absence hold for the method and conditions named.
T1: CED-4 (Apaf-1-like protein) (C. elegans) (UniProt P30429)
T1 sequence: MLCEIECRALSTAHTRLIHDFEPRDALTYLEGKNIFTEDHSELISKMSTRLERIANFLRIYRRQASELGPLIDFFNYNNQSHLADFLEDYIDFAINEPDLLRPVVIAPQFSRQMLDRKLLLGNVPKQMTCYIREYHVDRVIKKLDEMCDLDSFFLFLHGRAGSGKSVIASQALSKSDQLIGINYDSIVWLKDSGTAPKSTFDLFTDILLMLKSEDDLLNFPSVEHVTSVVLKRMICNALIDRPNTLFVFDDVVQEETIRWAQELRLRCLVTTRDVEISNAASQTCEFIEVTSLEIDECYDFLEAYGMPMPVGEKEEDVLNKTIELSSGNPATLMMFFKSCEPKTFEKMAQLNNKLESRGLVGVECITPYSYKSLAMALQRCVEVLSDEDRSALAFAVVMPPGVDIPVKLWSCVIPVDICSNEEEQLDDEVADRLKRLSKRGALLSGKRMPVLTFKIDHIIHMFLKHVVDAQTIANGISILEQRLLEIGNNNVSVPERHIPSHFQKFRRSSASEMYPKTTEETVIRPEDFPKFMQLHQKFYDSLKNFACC

T2: CED-3 caspase (C. elegans) (UniProt P42573)
T2 sequence: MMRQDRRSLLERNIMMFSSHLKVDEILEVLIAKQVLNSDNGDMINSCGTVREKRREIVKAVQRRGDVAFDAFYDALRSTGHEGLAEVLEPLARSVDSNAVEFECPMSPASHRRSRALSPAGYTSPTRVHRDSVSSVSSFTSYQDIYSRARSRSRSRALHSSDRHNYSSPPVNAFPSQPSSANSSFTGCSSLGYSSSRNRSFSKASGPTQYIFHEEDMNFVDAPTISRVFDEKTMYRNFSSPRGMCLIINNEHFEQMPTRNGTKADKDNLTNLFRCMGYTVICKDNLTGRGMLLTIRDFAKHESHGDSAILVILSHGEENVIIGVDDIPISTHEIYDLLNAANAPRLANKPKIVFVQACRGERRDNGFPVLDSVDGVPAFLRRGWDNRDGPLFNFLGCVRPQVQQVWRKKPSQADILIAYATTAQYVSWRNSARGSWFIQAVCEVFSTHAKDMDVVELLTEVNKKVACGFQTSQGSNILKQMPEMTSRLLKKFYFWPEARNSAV

B1: C. elegans EIF-3.K (eukaryotic translation initiation factor 3 subunit k) (protein, UniProt Q9XUP3 1-240)
chain: MSFEKLQKELHEAIEGVNRYNPENVADLAACVQAMVNENKYDKDIVLTILKLYQLNPEKYDEAVVRQVLLKTLMVLPSSDFALAKCLIDTNRLGSQELRRIFDLGAVLESCNFAVFWKLVKGAYKPTTNPNEPFKVPGEVPKMIKPMVGFEDAVKHYACRVISVTFQKIEKKMLSRLLGGASDKEVTALAQSFGWEAKENGDVFFVANHEGTIKTRNIDEKIQFPHVADLLTSIQPPLTL
B2: WH (Winged Helix) domain of C. elegans EIF-3.K (domain or fragment, UniProt Q9XUP3 148-208)
chain: VGFEDAVKHYACRVISVTFQKIEKKMLSRLLGGASDKEVTALAQSFGWEAKENGDVFFVAN

Experiments:
[1] = target: T1, CED-4 (Apaf-1-like protein) (C. elegans); experiment: two-hybrid; yeast strain MaV203; transformants streaked on SC-Trp-Leu-His or SC-Trp-Leu plates containing 30 mM 3 AT; growth on SC-Trp-Leu-His + 30 mM 3 AT indicates an interaction
[2] = target: T2, CED-3 caspase (C. elegans); experiment: as above

Binder	binding [1]	binding [2]
B1	no binding	no binding
B2	no binding	no binding

Source: PMC3348885
